Experiment [1] concerns the target HIV-1 Integrase (IN), bait IN (HIV-1 isolate YU2) (UniProt P35963). Briefly: yeast two-hybrid screen, IN bait.
Experiment [2] has the same target. Kind of experiment: yeast two-hybrid screen, bait IN (pB27), CEMC7 random primed cDNA prey library; table of bait-prey interactions.
The target is the same in experiment [3]. Briefly: yeast two-hybrid screen, IN bait, CEM cDNA prey libraries.

No constants are given. Whether binding was seen depends on the method and setting. Some results given as binding are weak or reduced against the parent protein; the word gives no strength.

B1: Human PIASY (prey000022), prey fragments (enzyme)
chain: AAELVEAKNMVMSFRVSDLQMLLGFVGRSKSGLKHELVTRALQLVQFDCSPELFKKIKELYETRYAKKNSEPAPQPHRPLDPLTMHSTYDRAGAVPRTPLAGPNIDYPVLYGKYLNGLGRLPAKTLKPEVRLVKLPFFNMLDELLKPTELVPQNNEKLQESPCIFALTPRQVELIRNSRELQPGVKAVQVVLRICYSDTSCPQEDQYPPNIAVKVNHSYCSVPGYYPSNKPGVEPKRPCRPINLTHLMYLSSATNRITVTWGNYGKSYSVALYLVRQLTSSELLQRLKTIGVKHPELCKALVKEKLRLDPDSEIATTGVRVSLICPLVKMRLSVPCRAETCAHLQCFDAVFYLQMNEKKPTWMCPVCDKPAPYDQLIIDGLLSKILSECEDADEIEYLVDGSWCPIRAEKERSCSPQGAILVLGPSDANGLLPAPSVNGSGALGSTGGGGPVGSMENGKPGADVVDLTLDSSSSSEDEEEEEEEEEDEDEEGPRPKRRCPFQKGLVPAC
In the case of B1, the binding entry in experiment [1] and in experiment [2] was “binds” throughout.

B2: Human TRN-SR (prey007766), prey fragments (protein)
chain: MEGAKPTLQLVYQAVQALYHDPDPSGKERASFWLGELQRSVHAWEISDQLLQIRQDVESCYFAAQTMKMKIQTSFYELPTDSHASLRDSLLTHIQNLKDLSPVIVTQLALAIADLALQMPSWKGCVQTLVEKYSNDVTSLPFLLEILTVLPEEVHSRSLRIGANRRTEIIEDLAFYSSTVVSLLMTCVEKAGTDEKMLMKVFRCLGSWFNLGVLDSNFMANNKLLALLFEVLQQDKTSSNLHEAASDCVCSALYAIENVETNLPLAMQLFQGVLTLETAYHMAVAREDLDKVLNYCRIFTELCETFLEKIVCTPGQGLGDLRTLELLLICAGHPQYEVVEISFNFWYRLGEHLYKTNDEVIHGIFKAYIQRLLHALARHCQLEPDHEGVPEETDDFGEFRMRVSDLVKDLIFLIGSMECFAQLYSTLKEGNPPWEVTEAVLFIMAAIAKSVDPENNPTLVEVLEGVVRLPETVHTAVRYTSIELVGEMSEVVDRNPQFLDPVLGYLMKGLCEKPLASAAAKAIHNICSVCRDHMAQHFNGLLEIARSLDSFLLSPEAAVGLLKGTALVLARLPLDKITECLSELCSVQVMALKKLLSQEPSNGISSDPTVFLDRLAVIFRHTNPIVENGQTHPCQKVIQEIWPVLSETLNKHRADNRIVERCCRCLRFAVRCVGKGSAALLQPLVTQMVNVYHVHQHSCFLYLGSILVDEYGMEEGCRQGLLDMLQALCIPTFQLLEQQNGLQNHPDTVDDLFRLATRFIQRSPVTLLRSQVVIPILQWAIASTTLDHRDANCSVMRFLRDLIHTGVANDHEEDFELRKELIGQVMNQLGQQLVSQLLHTCCFCLPPYTLPDVAEVLWEIMQVDRPTFCRWLENSLKGLPKETTVGAVTVTHKQLTDFHKQVTSAEECKQVCWALRDFTRLFR
As for B2, the binding entry in experiment [3] and in experiment [2] was “binds” in each case.

The values above are taken from patent US20060034860A1.
